Assay results: PMC12377093
Results are given in words; binding and its absence hold for the method and conditions named. Binding seen in cells or lysates may run through a third protein. Sequences can lack the tags named with a protein.

Molecular target: T1, Myc-tagged porcine IKKε (pcDNA-Myc-IKKε) (porcine) (UniProt M9MMN5)
T1 sequence: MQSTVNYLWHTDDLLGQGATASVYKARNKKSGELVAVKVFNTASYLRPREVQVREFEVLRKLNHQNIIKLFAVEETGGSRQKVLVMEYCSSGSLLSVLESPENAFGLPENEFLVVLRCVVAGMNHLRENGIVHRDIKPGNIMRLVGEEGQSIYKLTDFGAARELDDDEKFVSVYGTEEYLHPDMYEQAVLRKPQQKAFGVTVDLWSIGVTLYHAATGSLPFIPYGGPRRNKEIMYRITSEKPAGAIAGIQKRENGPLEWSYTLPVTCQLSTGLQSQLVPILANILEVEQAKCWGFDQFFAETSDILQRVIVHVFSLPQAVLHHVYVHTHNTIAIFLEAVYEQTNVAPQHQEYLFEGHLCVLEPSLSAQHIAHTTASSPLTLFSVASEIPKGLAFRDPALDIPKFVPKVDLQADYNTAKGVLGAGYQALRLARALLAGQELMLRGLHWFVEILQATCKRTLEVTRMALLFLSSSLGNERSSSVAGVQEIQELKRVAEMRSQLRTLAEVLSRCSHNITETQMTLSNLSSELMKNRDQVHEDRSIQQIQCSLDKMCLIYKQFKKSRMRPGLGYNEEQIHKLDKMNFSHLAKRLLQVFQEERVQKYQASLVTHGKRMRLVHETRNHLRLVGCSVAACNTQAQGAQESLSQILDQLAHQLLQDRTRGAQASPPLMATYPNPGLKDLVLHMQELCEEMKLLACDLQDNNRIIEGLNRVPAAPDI
Assay: co-IP

For “GFP-tagged PRRSV non-structural protein 5 (pEGFP-N1-Nsp5) (PRRSV-2, strain XJ17-5)”, the binding was “no binding”.
